Measurements as given in paper PMC3578829, “A Small Molecule (Pluripotin) as a Tool for Studying Cancer Stem Cell Biology: Proof of Concept” (PLoS ONE, 2013).
A number of entries come with more than one value. This list holds those alone. An entry can have further records. Values that stand side by side do not match, cause unknown; dose, time, organism, isomer or construct need not be as stated for each record.

Sequences of proteins named here, by UniProt entry; tags and fusion partners are left off.
UniProt P31749, whole entry: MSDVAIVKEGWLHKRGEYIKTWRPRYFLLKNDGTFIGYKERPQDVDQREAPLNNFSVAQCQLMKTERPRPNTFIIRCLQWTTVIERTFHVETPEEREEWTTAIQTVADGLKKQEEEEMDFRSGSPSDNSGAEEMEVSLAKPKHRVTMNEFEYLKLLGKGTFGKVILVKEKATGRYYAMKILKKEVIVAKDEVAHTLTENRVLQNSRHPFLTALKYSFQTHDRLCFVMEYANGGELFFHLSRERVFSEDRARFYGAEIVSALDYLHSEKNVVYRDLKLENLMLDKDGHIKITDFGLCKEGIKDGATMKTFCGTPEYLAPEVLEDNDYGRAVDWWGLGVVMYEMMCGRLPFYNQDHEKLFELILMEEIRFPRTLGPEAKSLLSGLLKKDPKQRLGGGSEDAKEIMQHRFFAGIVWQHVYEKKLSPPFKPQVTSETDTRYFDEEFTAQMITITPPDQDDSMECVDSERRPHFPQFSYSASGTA

Columns and labels:
Test in all cases: Miniaturized 33P-based kinase screening assay
Conditions in all cases: max 10 µM, 3-fold serial dilution, n = 2
Akt1 = Akt1 (Homo sapiens, UniProt P31749)
Protocol: (§1) The RSK2 in vitro kinase inhibition assay utilized was a modification of protocols established by Nguyen et al.. Additional protocols that confirmed the results depicted in Figure 4 and evaluated kinase inhibitory activity in a random selection of protein kinases (Table 3) were conducted at Reaction Biology Corporation (Malvern, PA). This was a miniaturized ^33P-based screening assay.

PKA = PKA (Homo sapiens, UniProt P17612)
Protocol: as §1

PKC = test system: PKC
Protocol: as §1

Measured: IC50

Cc1cc(Nc2ncc3c(n2)N(C)C(=O)N(c2cc(NC(=O)c4cccc(C(F)(F)F)c4)ccc2C)C3)n(C)n1 [SC-1]
No inhibitory effect and > 10 µM: all assays above
